Earlier results on one molecule are cited in patent US20190008779A1, “GEMCABENE COMPOSITIONS AND METHODS OF USE THEREOF” (GEMPHIRE THERAPEUTICS INC., priority 2017, published 2019).

Sequences of proteins named here, by UniProt entry; tags and fusion partners are left off. A change or cut given only in a name is not applied to a line headed by its entry.
UniProt P08183, whole entry: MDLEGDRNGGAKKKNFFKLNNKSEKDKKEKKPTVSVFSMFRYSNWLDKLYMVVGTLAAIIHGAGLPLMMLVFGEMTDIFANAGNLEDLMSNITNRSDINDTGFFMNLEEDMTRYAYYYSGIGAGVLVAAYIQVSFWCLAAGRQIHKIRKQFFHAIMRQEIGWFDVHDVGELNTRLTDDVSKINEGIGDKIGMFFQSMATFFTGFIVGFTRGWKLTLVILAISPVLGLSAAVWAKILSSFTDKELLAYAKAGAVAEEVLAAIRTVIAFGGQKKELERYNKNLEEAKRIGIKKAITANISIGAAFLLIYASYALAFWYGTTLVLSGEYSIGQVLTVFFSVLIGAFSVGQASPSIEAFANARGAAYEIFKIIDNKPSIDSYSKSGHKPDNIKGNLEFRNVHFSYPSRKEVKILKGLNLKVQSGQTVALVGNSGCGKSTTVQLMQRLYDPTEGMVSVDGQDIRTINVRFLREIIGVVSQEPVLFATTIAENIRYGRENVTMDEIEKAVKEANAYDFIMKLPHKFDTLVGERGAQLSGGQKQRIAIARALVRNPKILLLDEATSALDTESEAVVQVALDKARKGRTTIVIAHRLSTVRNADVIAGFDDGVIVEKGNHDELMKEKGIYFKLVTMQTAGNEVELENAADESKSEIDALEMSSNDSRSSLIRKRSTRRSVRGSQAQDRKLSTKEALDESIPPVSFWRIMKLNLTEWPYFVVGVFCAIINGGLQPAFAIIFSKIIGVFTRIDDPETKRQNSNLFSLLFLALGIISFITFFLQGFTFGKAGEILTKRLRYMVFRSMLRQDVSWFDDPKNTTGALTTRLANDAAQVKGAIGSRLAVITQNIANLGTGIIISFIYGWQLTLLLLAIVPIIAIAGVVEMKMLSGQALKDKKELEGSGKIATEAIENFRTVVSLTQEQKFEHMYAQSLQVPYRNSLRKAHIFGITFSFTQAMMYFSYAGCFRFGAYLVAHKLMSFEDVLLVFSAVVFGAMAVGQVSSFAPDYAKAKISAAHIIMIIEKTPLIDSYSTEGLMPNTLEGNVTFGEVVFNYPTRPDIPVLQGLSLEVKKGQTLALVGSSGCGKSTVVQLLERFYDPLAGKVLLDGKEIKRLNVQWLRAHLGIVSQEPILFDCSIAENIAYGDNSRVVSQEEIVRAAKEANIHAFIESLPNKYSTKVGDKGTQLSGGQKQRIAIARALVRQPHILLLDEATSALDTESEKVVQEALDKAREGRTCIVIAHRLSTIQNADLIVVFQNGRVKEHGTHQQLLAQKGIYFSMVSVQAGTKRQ
UniProt Q9Y6L6: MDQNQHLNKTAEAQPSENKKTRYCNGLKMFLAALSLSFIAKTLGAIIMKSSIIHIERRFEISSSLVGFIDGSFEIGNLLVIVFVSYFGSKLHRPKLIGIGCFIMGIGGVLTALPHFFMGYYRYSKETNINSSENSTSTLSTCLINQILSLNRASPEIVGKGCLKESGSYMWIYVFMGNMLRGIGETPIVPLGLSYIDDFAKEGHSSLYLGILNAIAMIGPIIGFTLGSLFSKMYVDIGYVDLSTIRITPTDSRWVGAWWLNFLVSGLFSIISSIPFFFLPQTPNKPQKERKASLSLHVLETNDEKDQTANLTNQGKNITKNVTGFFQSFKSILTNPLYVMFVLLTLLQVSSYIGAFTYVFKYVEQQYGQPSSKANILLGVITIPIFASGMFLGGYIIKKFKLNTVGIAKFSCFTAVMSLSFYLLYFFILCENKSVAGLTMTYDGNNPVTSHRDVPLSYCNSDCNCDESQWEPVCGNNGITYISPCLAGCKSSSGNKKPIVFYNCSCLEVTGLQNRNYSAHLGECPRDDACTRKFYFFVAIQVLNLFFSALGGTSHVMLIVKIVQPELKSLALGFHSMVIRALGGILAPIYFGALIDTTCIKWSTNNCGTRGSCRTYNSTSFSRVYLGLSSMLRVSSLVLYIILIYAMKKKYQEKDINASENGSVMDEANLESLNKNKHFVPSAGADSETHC

Data set [1] concerns the target P-glycoprotein (P-gp) (Homo sapiens, UniProt P08183). The note with it: cited from earlier work.
For data set [2], the target named is OATP1B1 (Homo sapiens, UniProt Q9Y6L6). The following applies: cited from earlier work.

Take `CC(C)c1c(C(=O)Nc2ccccc2)c(-c2ccccc2)c(-c2ccc(F)cc2)n1CC[C@@H](O)C[C@@H](O)CC(=O)O` [Atorvastatin, atorvastatin]: in data set [1], the “substrate of the efflux transporter P-glycoprotein (P-gp)” value is given as “substrate”. The “substrate of organic anion transporting polypeptide (OATP1B1)” value in data set [2] is recorded as “substrate”.
